According to publication PMC12718634:
These are yes or no findings as the source states them, for the method shown. In cells and extracts the contact can be indirect. These calls come from enrichment with a bait or labelling near it, and not all partners need be listed.

The chains behind the UniProt entries cited, without tags or fusion partners.
UniProt P49023: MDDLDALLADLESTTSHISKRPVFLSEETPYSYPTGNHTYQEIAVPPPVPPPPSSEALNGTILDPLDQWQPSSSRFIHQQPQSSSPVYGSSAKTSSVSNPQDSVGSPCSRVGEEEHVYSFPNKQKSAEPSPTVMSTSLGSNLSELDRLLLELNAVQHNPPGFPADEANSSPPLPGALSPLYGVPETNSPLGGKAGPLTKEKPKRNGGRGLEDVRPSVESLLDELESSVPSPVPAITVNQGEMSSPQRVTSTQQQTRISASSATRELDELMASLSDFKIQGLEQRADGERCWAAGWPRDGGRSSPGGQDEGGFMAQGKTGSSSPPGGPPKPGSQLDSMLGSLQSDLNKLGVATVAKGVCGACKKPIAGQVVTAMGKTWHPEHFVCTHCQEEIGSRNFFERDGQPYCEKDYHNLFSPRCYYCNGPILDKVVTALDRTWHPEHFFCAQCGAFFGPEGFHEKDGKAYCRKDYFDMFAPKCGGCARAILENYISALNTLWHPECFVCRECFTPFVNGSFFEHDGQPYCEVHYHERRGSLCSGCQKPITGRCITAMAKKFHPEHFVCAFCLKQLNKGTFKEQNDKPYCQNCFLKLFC

Molecular target: GFP-BirA*-Paxillin (UniProt P49023)
Assay: proximity labelling; Bio-ID: GFP-BirA*-Paxillin as bait, stably expressed in B16-F1 control and Cyri-b KO cells on laminin; biotin or DMSO for 16 h; biotinylated proteins captured on NeutrAvidin agarose, on-bead digestion, mass spectrometry (label-free quantification)

Binder | binding
GIT1 (protein, UniProt Q68FF6 1-770) MSRKGPRAEVCADCSAPDPGWASISRGVLVCDECCSVHRSLGRHISIVKHLRHSAWPPTLLQMVHTLASNGANSIWEHSLLDPAQVQSGRRKANPQDKVHPIKSEFIRAKYQMLAFVHKLPCRDDDGVTAKDLSKQLHSSVRTGNLETCLRLLSLGAQANFFHPEKGTTPLHVAAKAGQTLQAELLVVYGADPGSPDVNGRTPIDYARQAGHHELAERLVECQYELTDRLAFYLCGRKPDHKNGHYIIPQMADRSRQKCMSQSLDLSELAKAAKKKLQALSNRLFEELAMDVYDEVDRRENDAVWLATQNHSTLVTERSAVPFLPVNPEYSATRNQGRQKLARFNAREFATLIIDILSEAKRRQQGKSLSSPTDNLELSARSQSELDDQHDYDSVASDEDTDQEPLPSAGATRNNRARSMDSSDLSDGAVTLQEYLELKKALATSEAKVQQLMKVNSSLSDELRRLQREIHKLQAENLQLRQPPGPVPPPSLPSERAEHTLMGPGGSTHRRDRQAFSMYEPGSALKPFGGTPGDELATRLQPFHSTELEDDAIYSVHVPAGLYRIRKGVSASSVPFTPSSPLLSCSQEGSRHASKLSRHGSGADSDYENTQSGDPLLGLEGKRFLELSKEDELHPELESLDGDLDPGLPSTEDVILKTEQVTKNIQELLRAAQEFKHDSFVPCSEKIHLAVTEMASLFPKRPALEPVRSSLRLLNASAYRLQSECRKTVPPEPGAPVDFQLLTQQVIQCAYDIAKAAKQLVTITTREKKQ | binds
Shroom4 (protein, UniProt Q1W617 1-1475) MESRPGSFQYVPVQLQGGAPWGFTLKGGLEHCEPLTVSKIEDGGKAALSQKMRTGDELVNINGTPLYGSRQEALILIKGSFRILKLIVRRRNTPVSRPHSWHVAKLLEGCPDVATTMHFPSEAFSLSWHSGCNTSDVSVQWCPLSRHCSTEKSSSIGSMESLEQPGQPTYEGHLLPIDQNMYPSQRDSAYSSFSASSNASDCALSLKPEEPPSTDCVMPGPGPIKVTDDQANVSENSGSSHSTSEDHVTSTSHASSYSDEGHHSGPAKMARGPPEPPVRSDSLPASRAQLLNGEQHRASEPVDSLPQKEKPGLETVLPPRSSNQFCCLSGQDQVTDEDHQNCELSKPSESSQDDCEHLLIEDSSKALDSPKAHDKGSNKEFGLLKEASADLANTLNFGAIPHLRGTMEHRHSAPEQLLASHLQQVHLDSRGSKGMELPIGQDGHQWTVSPLHNNPKGKKSPSLPTGGTQDQTRKERKTTPLDDKLMASVHQSQSDVLLGEVDGHPNRAGRASSDLTSQQPSATCSSVQQTRDFLSAHKIVDHTEASEEGDNEPKECGRLGGRRSGGPRGRSIQNRRRSERFATNLRNEIQRRKAQLQKSKGPLSQLCDTNEAVEETQEPPESPPLSASNASLLPSYKNVPSPGDKVFNKSMILRARSSECLSQASESSKARGGVEGRMSPGQRSGQSSLALNTWWKASDSSTLDTEKANAHHGVCRGHWRWSPEHNAQPQVALSTEAPSNPDDSKELKTSTPQAGEEAVLMPFADRRKFFEESSKSLSTSHLPGLTTHNNKPFIQRQKPIDQNFQSVSYRDLRCHPLDQSYHSADQSYHAADQSYHSLSPLQSETPTYPECFATKGRDNSLCCKPVHHGDCDYHRTCSHPCSAQGTVRHDPCICCSGEICPALLKRNLLPKCHNCRCHHHQCIRCTGCCHGPQHSAHEDSSMAPGNAWKSRKAAIQEFPVDKWKPITGNRKTSHSGREMAHSKAGFSLSTPFRPCIENPALDLSNYRAVSSLDILGDFKRASNKPEESSVYEDENSVASMPRPLRSRAFSESHISLEPQNTQAWGKHQRESFSKGSETQPDTLGARKKVFPPPRPPPPNWEKYRLFRAAQLQQQQQQQQQQQQQQRCEEEEEKEQEEEGEKEEDLPPQYFSSELTGSCAPNTEEQPQSLKMGHQEASRQGSQSLQEQEAFALHPSNFVPPVRGCTVPQPEKAQHPCYYGTHGLWRTTEQEATVTPKQEFQHFSPPKGASGIPTSYSAYYNISVAKAELLNKLKQQPEMAEAGLGEEGVDYELAQKKIQLIESISRKLSVLREAQRGLLDDINANAALGEEVEANLKAVCKSNEFEKYHLFIGDLDKVVNLLLSLSGRLARVENALNSIDSESNQEKLVLIEKKQQLTNQLADAKELKEHVDGREKLVFGMVSRYLPQDQLQDYQHFVKMKSALIIEQRELEEKIKLGEEQLKCLKESLHLGPSNF | binds

Next, values leading:

binding | Binder
binds | β-PIX (protein, UniProt Q9ES28 1-862) MNSAEQTVTWLITLGVLESPKKTISDPEVFLQASLKDGVVLCRLLERLLPGTIEKVYPEPRNESECLSNIREFLRACGASLRLETFDANDLYQGQNFNKVLSSLVTLNKVTADIGLGSDSVCARPSSHRIKSFDSLGSQSSHSRTSKLLQSQYRSLDMTDNTNSQLVVRAKFNFQQTNEDELSFSKGDVIHVTRVEEGGWWEGTHNGRTGWFPSNYVREIKPSEKPVSPKSGTLKSPPKGFDTTAINKSYYNVVLQNILETEHEYSKELQSVLSTYLRPLQTSDKLSSANTSYLMGNLEEISSFQQVLVQSLEECTKSPEAQQRVGGCFLSLMPQMRTLYLAYCANHPSAVSVLTEHSEDLGEFMETKGASSPGILVLTTGLSKPFMRLDKYPTLLKELERHMEDYHPDRQDIQKSMTAFKNLSAQCQEVRKRKELELQILTEPIRSWEGDDIKTLGSVTYMSQVTIQCAGSEEKNERYLLLFPNLLLMLSASPRMSGFIYQGKLPTTGMTITKLEDSENHRNAFEISGSMIERILVSCTSQQDLHEWVEHLQKQTKVTSVSNPTIKPHSVPSHTLPSHPLTPSSKHADSKPVALTPAYHTLPHPSHHGTPHTTISWGPLEPPKTPKPWSLSCLRPAPPLRPSAALCYKEDLSKSPKTMKKLLPKRKPERKPSDEEFAVRKSTAALEEDAQILKVIEAYCTSAKTRQTLNSTWQGTDLMHNHVLADDDQSSLDSLGRRSSLSRLEPSDLSEDSEYDSIWTAHSYRMGSASRSRKESAPQVLLPEEEKIIVEETKSNGQTVIEEKSLVDTVYALKDEVQELRQDNKKMKKSLEEEQRARKDLEKLVRKVLKNMNDPAWDETNL
binds | Shroom2 (protein, UniProt A2ALU4 1-1481) MEGAEPRARPERLAEAEAPATDGVRLVEVQLSGGAPWGFTLKGGREHGEPLVITKIEEGSKAAAVDKLLAGDEIVAINDVSLSGFRQEAICLVKGSHKTLKLVVKRKSDPSWRPHSWHATKYFDVHPEPAASLFLNTSGSPSWKSQHQASSSSHDLSGSWEHTSLQRTSDHFSSMGSIDSLDHSSQLYPSGHLSSAKSNSSIDHLGGHSKRDSAYGSFSTCSSTPDHTLPKADASSTENILYKVGLWEASRPGSSRQSQSTGDPQGLQDRPSCFIPRVPGNSSKSPRPEDNVEPKIATHGRSNFGPVWYVPDKKKAPSPPPLGLPLRSDSFSVAARGHEKARGPPFSDLASMQHFITLPHVQPRGDHRMETTDRQWKLTHLSSGKEIGNVGYQSEGHLDCRWLCSDDRAGRPSGPPGRLQFSDVHFLKSYHGSQHQQQCSDESPRAPSSPRELLHITPGGGLQEPPEPSQDDNPTQVRWPGSAHQKLDDRGRSHYFPGSLRQPVQGSAQVVIPRGDYWHSDTTPVDLEYPLLRPVGQRTYLQQHEETPASHEKEGYHQLNAGIEGCCSGIQEPPRASRTVRTGLQCPSNDFKLVDGESGRISRQRTPMLHSLTQDGTWRPGNSKDCGNDKPPLFDAQVGKPTRRSDRFATTLRNEIQMRRAKLQKSKSTVTLAGDSEAEDCAGDWRADVGAVPEGSFPSTYKEHLKEAQTRVLKATSFQRRDLDPTPADQYSGPSEHRTFDHSASSSLSSFPGEPDSAPRFCETGLAKAPSSGVGVPHVLRIGGRKRFTAEQKLKSYSEPEKINEVGLSGDHRPHPTVRTPEDTVGTFADRWKFFEETSKSLLQKAGHRQVHCGLPREKAERPQTGHHECESTEPWFQKRSLATSCGEILSDRKVEKASEKLNPPRRLGTFAEYQASWKEQKKPLEARSSGRYHSADDILDAGLDQQQRPQYIHERSRSSPSTDHYSQEVPVEPNRQAEDSGDHKEAILCTLQAEEGCSAPSAQPQDSQHVNEDTTFPQPETQLSSKCQHLQTSAMETSRSPSPQFAPQKLTDKPPLLIHEDNSARIERVMDNNTTVKMVPIKIVHSESQPEKESRQSLACPAELPPLPSGLERDQIKTLSTSEQCYSRFCVYTRQEVEAPHRARPPEPRPPSTPAPPVRDSCSSPPSLNYGKAKEKTMDDLKSEELAREIVGKDKSLADILDPSVKIKTTMDLMEGIFPKDEYLLEEAQQRRKLLPKVPLPRVTEDKKQDPGMPGVVSLATNSTYYSTSAPKAELLIKMKDLQEPEEYSAGDLDHDLSVKKQELIDSISRKLQVLREARESLLEDIQANNALGDEVEAIVKDVCKPNEFDKFRMFIGDLDKVVNLLLSLSGRLARVENALNNLDDNPSPGDRQSLLEKQRVLTQQHEDAKELKENLDRRERIVFDILATYLSEENLADYEHFVKMKSALIIEQRELEDKIHLGEEQLKCLFDSLQPERSK
binds | zyxin (protein, UniProt Q62523 1-564) MAAPRPPPAISVSVSAPAFYAPQKKFAPVVAPKPKVNPFRPGDSEPPVAAGAQRAQMGRVGEIPPPPPEDFPLPPPPLIGEGDDSEGALGGAFPPPPPPMIEEPFPPAPLEEDIFPSPPPPLEEEGGPEAPTQLPPQPREKVCSIDLEIDSLSSLLDDMTKNDPFKARVSSGYVPPPVATPFVPKPSTKPAPGGTAPLPPWKTPSSSQPPPQPQAKPQVQLHVQPQAKPHVQPQPVSSANTQPRGPLSQAPTPAPKFAPVAPKFTPVVSKFSPGAPSGPGPQPNQKMVPPDAPSSVSTGSPQPPSFTYAQQKEKPLVQEKQHPQPPPAQNQNQVRSPGGPGPLTLKEVEELEQLTQQLMQDMEHPQRQSVAVNESCGKCNQPLARAQPAVRALGQLFHITCFTCHQCQQQLQGQQFYSLEGAPYCEGCYTDTLEKCNTCGQPITDRMLRATGKAYHPQCFTCVVCACPLEGTSFIVDQANQPHCVPDYHKQYAPRCSVCSEPIMPEPGRDETVRVVALDKNFHMKCYKCEDCGKPLSIEADDNGCFPLDGHVLCRKCHSARAQT
